Experimental data published in US20250164463A1, “SCREENING METHOD AND THERAPEUTIC AGENT FOR MENTAL DISORDER” (Fujita Health University, priority 2022, published 2025).

How the values were obtained:
[1] = test system: patients with multiple sclerosis (MS); details: Non Patent Literatures 1 and 2; cited from earlier work
[2] = test system: mice after alcohol intake and alcohol abstinence; details: clemastine 10 mg/kg orally every day from end of EtOH administration to final day of behavioral tests; EtOH+clemastine group vs EtOH group; FIG. 5(b)

CN1CCC[C@@H]1CCO[C@](C)(c1ccccc1)c1ccc(Cl)cc1 [clemastine]
safety and efficacy in patients with multiple sclerosis [1]: proved significant safety and efficacy | recognition dysfunction (novel object recognition test) [2]: significantly remitted
